The values below come from PubChem BioAssay (NCATS).

Values joined by “and” are separate entries in the source; they are usually repeats but may differ in a detail not shown here. Equal values may be shown once. This is one part of the list. These are further read-outs of the screen, such as a control signal, another cell line or another target. No call is given for them. The list favours compounds with an active or inconclusive main result. For some of these results: Potencies come from curve fits of mixed quality, noted in brackets.

A short description of test [1]: qHTS Assay for Modulators of Human Peripheral Myelin Protein 22 (PMP22) Expression/Activity (AID 1967). Particulars: Cell-based PMP22 reporter, dual-color luciferase ratio. The method, boiled down:
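Readout is the corrected green/red luminescence ratio after 24 h compound exposure, normalised to untreated cells (0%). Engineered MSC80 mouse Schwann cells express green luciferase from the mouse Pmp22 promoter and red luciferase from EF-alpha as internal control.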
(In general: qHTS replaces the single test concentration by a dilution series.)

A short description of test [2]: qHTS Validation Assay to Find Inhibitors of Chronic Active B-Cell Receptor Signaling (AID 485345). Particulars: ABC-DLBCL cells, chronic BCR signaling reporter. The method, boiled down:
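Read-out: ratio of filter-corrected green (IkappaBalpha fusion) to red (native) luciferase signal in doxycycline-induced TMD8 cells after 4 h at 37C. Titration spanned 46 uM–3 nM; Data were normalised to basal cells and 10 uM MG-132 wells.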

Test [3] in a line: Nrf2 qHTS screen for inhibitors: Validation (AID 493153). To be noted: A549 ARE-Fluc reporter, 18-24 h; AC50: CellTiter-Fluor fluorescence read, measured here: cytotoxicity CellTiter-Fluor AC50; viability change: measured here: cytotoxicity max response. The method, boiled down: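 Luminescence from an ARE-firefly luciferase reporter in A549 cells gives Nrf2 inhibition; an earlier CellTiter-Fluor fluorescent read flags cytotoxicity. Cells in 5% FBS OPTI-MEM received compound dilution series for 18-24 h at 37°C.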

Test [4] can be described thus: S16 Schwann cell PMP22 intronic element beta-lactamase assay (AID 624044). To be noted: S16 rat Schwann cells, PMP22 element beta-lactamase FRET, 24 h. The method, boiled down:
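Rat S16 Schwann cells with beta-Lac driven by a PMP22 intronic element, compound-treated 24 h at 37 °C. LiveBLAzer FRET B/G read: 460 nm normalized to potassium clavulanate vs DMSO; 535 nm FRET as viability; concentration-effect curves classified.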

A short description of test [5]: qHTS for identification of novel therapeutic agents for treatment of microphthalmiaassociated transcription factor (MiT) renal cell carcinoma (RCC) (AID 1963991). Particulars: CellTiter-Glo, 48 h; for z-score: stronger effect = lower value. In short, it runs like this: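 Curves over 11 concentrations were fitted to CellTiter-Glo luminescence, scaled between empty wells (0%) and DMSO (100%) viability. Cells were UOK109, UOK124 and UOK145 TFE3-fusion RCC lines at 500/well, exposed 48 hours at 37 C.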

Test [6] can be described thus: qHTS assay for small molecule antagonists of peroxisome proliferator-activated receptor gamma signaling (AID 588537). Particulars: HEK293 PPARg-UAS-bla, beta-lactamase ratio, antagonist mode; measured here: W460 blue channel. The method, boiled down: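 Antagonist mode, beta-lactamase reporter in HEK293; charcoal/dextran FBS 1%; 3000 cells/well, 37 C 6-6.5 h; cpd titration + rosiglitazone 50 nM final, 16 h 37 C; CCF4, 2 h RT; 460/530 nm; Hill fit → IC50, efficacy.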

A short description of test [7]: qHTS assay for small molecule agonists of retinoid X receptor alpha signaling (AID 588544). To be noted: HEK293T RXRa-UAS-bla, beta-lactamase reporter, 18 h; 530 nm emission.
The nature of test [8]: qHTS assay for small molecule antagonists of retinoid X receptor alpha signaling (AID 588546).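 Note: cells stimulated with 9-cis-retinoic acid as agonist; % is set by controls: 0 for no effect and ±100 for the full control effect.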 Particulars: HEK293T RXRa-UAS-bla, beta-lactamase ratio, antagonist mode; measured here: W530 green channel, cytotoxicity proxy. The method, boiled down:
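Beta-lactamase reporter inhibition, read as CCF4 fluorescence ratio (ex 405, em 460/530 nm) after 2 h at RT. HEK293T UAS-bla cells, 2500/well, were stimulated with 9-cis-RA at 500 or 100 nM final alongside test compound for 18 h at 37 C.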

Test [9] in a line: qHTS assay for small molecule antagonists of peroxisome proliferator-activated receptor delta signaling (AID 588535).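 Note: cells co-treated with a PPAR-delta agonist as stimulator during compound exposure.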 Particulars: HEK293T PPARd-UAS-bla, beta-lactamase FRET ratio, 18 h; 460 nm channel. The method, boiled down:
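HEK293T PPAR-delta-UAS-bla cells, 4000/well, 2% charcoal/dextran FBS; 5 h 37 C; cpd titration; 18 h 37 C; CCF4 2 h RT; FI 460/530 nm; Hill fit → IC50, efficacy.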

Test [10] in a line: qHTS assay for small molecule antagonists of androgen receptor signaling (AID 588516). Particulars: AR-UAS-bla HEK293, beta-lactamase ratio, antagonist mode, 16 h; measured here: W460 blue channel fit. In short, it runs like this: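 Cells were plated and incubated 5 h, compounds added in titration, then R1881 (10 nM final) as agonist. After 16 h at 37 C, CCF4 substrate was loaded for 2 h at room temperature and fluorescence measured.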

A short description of test [11]: qHTS assay for small molecule antagonists of vitamin D receptor signaling (AID 588541). To be noted: HEK293T VDR-UAS-bla, beta-lactamase ratio, antagonist mode; measured here: W460 blue channel (cell viability).
Setting [12] is: measured here: green reporter channel AC50, mouse Pmp22 promoter in mouse Schwann cells.
[13] abbreviates: measured here: red reporter channel AC50, EF-alpha promoter control reporter in MSC80 mouse Schwann cells.
Setting [14] is: measured here: CBG/CBR ratio read-out.
The mark [15] stands for this setting: measured here: 460 nm blue channel.
Setting [16] is: TFE3-RCC UOK109 viability, measured here: UOK109 Z-AUC.
[17] abbreviates: TFE3-RCC viability, measured here: UOK124 Z-AUC.
The mark [18] stands for this setting: TFE3-RCC viability, measured here: UOK124 cell viability.
Where [19] appears, read: TFE3-RCC viability, measured here: UOK145 Z-AUC.
[20] abbreviates: TFE3-RCC viability, measured here: UOK145 cell viability.

As usually defined, the AC50 is the concentration giving half of the maximal activity seen.

On to `CCCNCC(O)COc1ccccc1C(=O)CCc1ccccc1` (configuration not stated), for which the half-maximal activity concentration (AC50) in [1] (setting [12]) was 42.6 µM [falling, partial curve]; in [1] (setting [13]), 47.8 µM [falling, partial curve]; in test [2] (setting [14]) it was 18.4 µM [falling, single point]; in test [4] (setting [15]), 9.99 µM [falling, partial curve, poor fit]; in [5] (setting [18]) it was 29.6 µM [falling, partial curve]; in test [5] (setting [20]), 20.9 µM [falling, single point]. Further, the viability change in test [3] is -3.93%. Also, the z-score in test [5] (setting [16]) was -0.02; in [5] (setting [17]), 0.345; in test [5] (setting [19]), 0.0429.

As for `O=C(N[C@H](CO)[C@H](O)c1ccc([N+](=O)[O-])cc1)C(Cl)Cl`, the AC50 in [6] is 79.4 µM [rising, single point]; in [5] (setting [20]) it was 0.469 µM [rising, full curve]. Also, the max response in [7] is -11.5%. Also, the z-score is -4.51 in test [5] (setting [16]), 0.731 in test [5] (setting [17]) and -1.03 in test [5] (setting [19]).

With `Cc1noc(NS(=O)(=O)c2ccc(N)cc2)c1C`, the concentration at half-maximal activity (AC50) in test [6] was 70.8 µM [rising, single point]; in test [5] (setting [20]), 0.0105 µM [rising, full curve]. The max response in [7] was -9.86%. For the same molecule, the z-score in [5] (setting [16]) came out at 1.26; in test [5] (setting [17]), 0.608; in test [5] (setting [19]), 0.172.

Take `CN(C)CCCC1(c2ccc(F)cc2)OCc2cc(C#N)ccc21` (configuration not stated): the half-maximal activity concentration (AC50) in [1] (setting [13]) was 84.9 µM [falling, single point]; in test [5] (setting [20]), 33.2 µM [falling, single point]. The z-score in [5] (setting [16]) is 0.145; in test [5] (setting [17]), 0.46; in test [5] (setting [19]) it was -0.0142.

For the molecule `CCCc1nc(C)c2c(=O)[nH]c(-c3cc(S(=O)(=O)N4CCN(CC)CC4)ccc3OCC)nn12`, the AC50 is 1.78 µM [falling, full curve, poor fit] in test [4] (setting [15]); 18.7 µM [falling, partial curve] in [5] (setting [18]); 23.5 µM [falling, partial curve] in test [5] (setting [20]). Also, the z-score is 0.392 in [5] (setting [16]), 0.0313 in [5] (setting [17]) and -0.252 in [5] (setting [19]).

`Cc1cc(O)c2c(c1)C(=O)c1cc(O)cc(O)c1C2=O`: the AC50 is 95.3 µM [falling, single point] in test [1] (setting [12]) and 29.1 µM [falling, single point] in test [2] (measured here: CBR control luciferase (viability counter)). In [8], the max response was -5.06%. In addition, the z-score was 0.325 in [5] (setting [16]), 0.869 in test [5] (setting [17]) and 0.79 in test [5] (setting [19]).

As to `Cc1nnc(NS(=O)(=O)c2ccc(N)cc2)s1`, the max response in test [9] is 95.1%. Also, the AC50 in test [6] is 50.1 µM [rising, single point]; in [5] (setting [20]), 3.72 µM [falling, full curve]. Also, the z-score in [5] (setting [16]) is -0.644; in test [5] (setting [17]) it was 0.745; in [5] (setting [19]), -0.0766.

With `COc1ccc2nc(S(=O)Cc3ncc(C)c(OC)c3C)[nH]c2c1` (configuration not stated), the max response in test [9] stood at 139%; in test [7], 39.2%. Further, the z-score in test [5] (setting [16]) came out at 1.07; in test [5] (setting [17]), 0.358; in [5] (setting [19]), 0.133. Further, the concentration at half-maximal activity (AC50) in test [5] (setting [20]) was 37.2 µM [falling, partial curve, poor fit].

`CC12CC3CC(C)(C1)CC(N)(C3)C2`: the concentration at half-maximal activity (AC50) in test [1] (setting [13]) was 84.9 µM [falling, single point]; in test [4] (setting [15]), 25.1 µM [falling, partial curve, poor fit]; in [5] (setting [20]), 23.5 µM [falling, partial curve]. Further, the z-score was -0.362 in test [5] (setting [16]), 0.467 in test [5] (setting [17]) and 0.124 in test [5] (setting [19]).

Turning to `O=c1[nH]cnc2c1ncn2[C@H]1CC[C@@H](CO)O1`, the max response in test [9] was 18.6%; in [8] it was -6.62%. Further, the AC50 in test [6] was 50.1 µM [rising, single point] and 12.6 µM [falling, full curve, poor fit]; in test [5] (setting [18]), 37.2 µM [rising, partial curve, poor fit]. The z-score in [5] (setting [16]) amounted to 0.422; in [5] (setting [17]), 0.353; in [5] (setting [19]), 0.591.

For the molecule `CCOC(=O)C1=C[C@]2(CC)CCCN3CCc4c(n1c1ccccc41)[C@@H]32`, the concentration at half-maximal activity (AC50) in [1] (setting [12]) was 67.5 µM [falling, partial curve]; in test [1] (setting [13]), 75.7 µM [falling, partial curve]; in test [2] (setting [14]), 18.4 µM [falling, partial curve]; in test [5] (setting [18]), 16.6 µM [falling, partial curve]; in test [5] (setting [20]), 33.2 µM [falling, single point]. The z-score in [5] (setting [16]) is -0.964; in test [5] (setting [17]), -0.121; in test [5] (setting [19]), -0.264.

As for `CC=CC1=C(C(=O)O)N2C(=O)[C@H](NC(=O)[C@H](N)c3ccc(O)cc3)[C@@H]2SC1`, the AC50 in test [4] (setting [15]) was 1.41 µM [falling, full curve, poor fit]; in test [4] (measured here: 530 nm viability channel), 1.58 µM [falling, full curve, poor fit]; in [5] (setting [20]), 0.148 µM [rising, full curve]. Moreover, the z-score is 0.752 in [5] (setting [16]), 0.602 in test [5] (setting [17]) and -1.44 in test [5] (setting [19]).

With `CC[C@H](C)C(=O)O[C@H]1C[C@@H](C)C=C2C=C[C@H](C)[C@H](CC[C@@H]3C[C@@H](O)CC(=O)O3)[C@H]21`, the max response in test [9] is 20%; in [7], 20.7%; in [8] it was -9.55%. For the same molecule, the z-score in test [5] (setting [16]) was -0.0335; in [5] (setting [17]), -0.101; in [5] (setting [19]), 0.00401. Besides, the concentration at half-maximal activity (AC50) in test [5] (setting [18]) is 4.69 µM [falling, full curve]; in [5] (setting [20]) it was 14.8 µM [falling, partial curve, poor fit].

Take `CC(C=CC1=C(C)CCCC1(C)C)=CC=CC(C)=CC(=O)Nc1ccc(O)cc1`: the concentration at half-maximal activity (AC50) in test [10] was 39.8 µM [falling, partial curve]; in [6], 39.8 µM [falling, partial curve, poor fit]; in [11] it was 28.2 µM [falling, partial curve]; in test [5] (setting [18]), 34 µM [falling, partial curve]; in [5] (setting [20]), 54 µM [falling, partial curve]. The results for the max response in test [9], in test [7] and in [8] were -45.8%, -52.4% and -50.2%, respectively. Also, the results for the z-score in test [5] (setting [16]), in [5] (setting [17]) and in test [5] (setting [19]) were -0.437, -0.138 and -0.0176, respectively.
